Values from PubChem BioAssay AID504808 (Drosophila RNAi Screening Center, 2011).
Assay: 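Fly genes required to hold E2F transcription in check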 (primary screen). System: Drosophila S2 cells. Reagent: long dsRNA against Drosophila genes. Measurement: 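Dual luciferase plate measurements; E2F-specific signal taken as firefly over Renilla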. Reading the numbers: E2F firefly: higher = more E2F reporter activity; Renilla normaliser: higher = more normaliser reporter signal. Active means: 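Called active if the normalised E2F reporter went up by over 50%; the cutoff is arbitrary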.
The deposit covers about 21,000 reagents; shown is an unselected part of those that have a named target and a result. In the full data, 18 (0.084%) were called active. 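Raw counts without plate normalisation, one of two replicates; the ratio scores behind the calls were not deposited.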 The numbers tell different reagents against one gene apart. A plus sign joins genes that one reagent is predicted to hit. No sequences are given here. Not given: the amount of reagent, the time to read-out.

For CG1309 the deposit lists E2F firefly, rep 1 = 65627; Renilla normaliser, rep 1 = 3278; inactive.
Silencing of CG11007 resulted in: E2F firefly, rep 1 = 66094; Renilla normaliser, rep 1 = 2797; inactive.
With knock-down of CG8419, the record shows E2F firefly, rep 1 = 1.51e5; Renilla normaliser, rep 1 = 4683; inactive.
CG12491 + CG34105 #1 scored E2F firefly, rep 1 = 1.50e5; Renilla normaliser, rep 1 = 5428; inactive.
With knock-down of CG12491 + CG34105 #2, the record shows E2F firefly, rep 1 = 1.12e5; Renilla normaliser, rep 1 = 4396; inactive.
CG7381 scored E2F firefly, rep 1 = 75122; Renilla normaliser, rep 1 = 3914; inactive.
Depletion of Art7 (Arginine methyltransferase 7) came out at: E2F firefly, rep 1 = 98945; Renilla normaliser, rep 1 = 4186; inactive.
Depletion of eIF3g1 (eukaryotic translation initiation factor 3 subunit g1) resulted in: E2F firefly, rep 1 = 1303; Renilla normaliser, rep 1 = 976; inactive.
Knock-down of Atat (alpha-tubulin acetylase) resulted in: E2F firefly, rep 1 = 76822; Renilla normaliser, rep 1 = 3650; inactive.
Depletion of CG4678 #1 resulted in: E2F firefly, rep 1 = 2.30e5; Renilla normaliser, rep 1 = 8061; inactive.
Silencing of CG4678 #2 came out at: E2F firefly, rep 1 = 2.65e5; Renilla normaliser, rep 1 = 8161; inactive.
Against Tsp42Eh (Tetraspanin 42Eh) the deposit lists E2F firefly, rep 1 = 1.41e5; Renilla normaliser, rep 1 = 5434; inactive.
For CG16799, the values are E2F firefly, rep 1 = 96800; Renilla normaliser, rep 1 = 4240; inactive.
Knock-down of Jon99Cii (Jonah 99Cii) came out at: E2F firefly, rep 1 = 1.24e5; Renilla normaliser, rep 1 = 6704; inactive.
Vps13B (Vacuolar protein sorting 13B) showed E2F firefly, rep 1 = 1.11e5; Renilla normaliser, rep 1 = 5536; inactive.
Depletion of Glut3 (Glucose transporter type 3) gave: E2F firefly, rep 1 = 1.18e5; Renilla normaliser, rep 1 = 5794; inactive.
Depletion of CG12134 gave: E2F firefly, rep 1 = 1.35e5; Renilla normaliser, rep 1 = 4378; inactive.
Against mv (mauve) #1 the deposit lists E2F firefly, rep 1 = 96999; Renilla normaliser, rep 1 = 4227; inactive.
Depletion of mv (mauve) #2 resulted in: E2F firefly, rep 1 = 94905; Renilla normaliser, rep 1 = 4519; inactive.
With knock-down of Cpr5C (Cuticular protein 5C), the screen gave E2F firefly, rep 1 = 89082; Renilla normaliser, rep 1 = 5132; inactive.
CAH14 (Carbonic anhydrase 14) gave E2F firefly, rep 1 = 86912; Renilla normaliser, rep 1 = 3729; inactive.
Targ (Tarag) gave E2F firefly, rep 1 = 1.05e5; Renilla normaliser, rep 1 = 4826; inactive.
Against Dlc90F (Dynein light chain 90F), the values are E2F firefly, rep 1 = 70906; Renilla normaliser, rep 1 = 4304; inactive.
Against ppk15 (pickpocket 15), the values are E2F firefly, rep 1 = 80566; Renilla normaliser, rep 1 = 6017; inactive.
Nep5 (Neprilysin 5) gave E2F firefly, rep 1 = 1927; Renilla normaliser, rep 1 = 1092; inactive.
After knock-down of CG12206 the results were E2F firefly, rep 1 = 1.06e5; Renilla normaliser, rep 1 = 4879; inactive.
Knock-down of bin3 (bicoid-interacting protein 3) gave: E2F firefly, rep 1 = 1.44e5; Renilla normaliser, rep 1 = 4769; inactive.
Silencing of CG14625 came out at: E2F firefly, rep 1 = 1.05e5; Renilla normaliser, rep 1 = 5281; inactive.

Laid out differently: results already given.
{"predicted target": "CAH14 (Carbonic anhydrase 14)", "reagent no.": 1, "E2F firefly, rep 1": 86912, "Renilla normaliser, rep 1": 3729, "Call": "inactive"}
{"predicted target": "Targ (Tarag)", "reagent no.": 1, "E2F firefly, rep 1": 1.05e5, "Renilla normaliser, rep 1": 4826, "Call": "inactive"}
{"predicted target": "Dlc90F (Dynein light chain 90F)", "reagent no.": 1, "E2F firefly, rep 1": 70906, "Renilla normaliser, rep 1": 4304, "Call": "inactive"}
